PubChem BioAssay AID1224826, NIAID, 2016

Purpose: 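Regulators of Tlr4 signalling leading to Tnf-alpha expression in macrophages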 (primary screen)
Cells: RAW264.7 G9 macrophages from mouse bearing reporters for p65 (GFP) and the Tnf promoter (mCherry)
Reagents: siRNA pool against mouse genes, 100 nM
Time to read-out: 16 h of LPS stimulation, after 2 days of siRNA transfection
Challenge: bacterial lipopolysaccharide (Salmonella minnesota R595), 10 ng/ml
Read-out: 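Imaged Tnf reporter mCherry in nuclei, minus background, normalised per plate to the median and expressed as robust z-scores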
Scale: Tnf reporter robust z-score: higher = stronger Tnf promoter reporter signal after LPS
Active means: 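Called active when robust z-score is at most -1.3, matching the median of the Tlr4 knock-down control, or over 3; control wells and wells with under 50 cells never active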
Meaning of the calls: active = Tnf reporter clearly lowered or raised; inactive = no clear change in Tnf reporter
This is one part, drawn at random, of about 17,000 reagents. About 1,110 of all reagents (6.6%) count as active. 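Active means lowered or raised reporter signal; replicate intensities are raw and not normalised per plate.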 Some reagents were tested in more than one well and are listed for each. Not all columns of the deposit are shown. No sequences are given here.

| Target gene | PubChem SID | Tnf reporter robust z-score | fewer than 50 cells in well | outcome |
| --- | --- | --- | --- | --- |
| Ajuba (ajuba LIM protein) | SID315467552 | 0.75 | enough cells in well | inactive |
| Nudt12 (nudix hydrolase 12) | SID315473352 | 0.31 | enough cells in well | inactive |
| Gpr35 (G protein-coupled receptor 35) | SID315472064 | -0.25 | enough cells in well | inactive |
| Tcam1 (testicular cell adhesion molecule 1) | SID315475215 | 1.55 | enough cells in well | inactive |
| Pde1b (phosphodiesterase 1B, Ca2+-calmodulin dependent) | SID315468432 | -0.46 | enough cells in well | inactive |
| Tfcp2 (transcription factor CP2) | SID315469622 | 1.14 | enough cells in well | inactive |
| Thbs3 (thrombospondin 3) | SID315469707 | 0.85 | enough cells in well | inactive |
| Mucl2 (mucin-like 2) | SID315469453 | 2.79 | enough cells in well | inactive |
| Il4i1 (interleukin 4 induced 1) | SID315466689 | 1.06 | enough cells in well | inactive |
| Bloc1s6 | SID315468375 | -1.21 | enough cells in well | inactive |
| Gspt2 (G1 to S phase transition 2) | SID315467052 | -0.33 | enough cells in well | inactive |
| Ntan1 (N-terminal Asn amidase) | SID315468257 | 1.11 | enough cells in well | inactive |
| Slc16a6 | SID315476453 | 2.53 | enough cells in well | inactive |
| Rnf213 (ring finger protein 213) | SID315480779 | -0.56 | enough cells in well | inactive |
| Dhrs4 (dehydrogenase/reductase 4) | SID315470689 | 0.61 | enough cells in well | inactive |
| B230317F23Rik (RIKEN cDNA B230317F23 gene) | SID315481299 | -0.85 | enough cells in well | inactive |
| Tmem205 (transmembrane protein 205) | SID315479220 | -1.21 | enough cells in well | inactive |
| Apol9b (apolipoprotein L 9b) | SID315474369 | -1.81 | enough cells in well | active |
| Ubd (ubiquitin D) | SID315470327 | -0.54 | enough cells in well | inactive |
| Pwp1 (PWP1 homolog, endonuclein) | SID315476358 | 2.04 | enough cells in well | inactive |
| Rarres1 (retinoic acid receptor responder (tazarotene induced) 1) | SID315476803 | 0.56 | enough cells in well | inactive |
| Kcne1 | SID315467573 | 0.08 | enough cells in well | inactive |
| Stat4 (signal transducer and activator of transcription 4) | SID315469486 | -1.12 | enough cells in well | inactive |
| Zgrf1 (zinc finger, GRF-type containing 1) | SID315474266 | 1.02 | enough cells in well | inactive |
| Tiparp (TCDD-inducible poly(ADP-ribose) polymerase) | SID315476198 | 0.41 | enough cells in well | inactive |
| Papola (poly (A) polymerase alpha) | SID315468569 | -1.13 | enough cells in well | inactive |
| Tmem69 (transmembrane protein 69) | SID315478803 | -0.31 | enough cells in well | inactive |
| Abce1 (ATP-binding cassette, sub-family E member 1) | SID315470288 | -0.46 | enough cells in well | inactive |
| Kcnn2 | SID315477122 | 1.86 | enough cells in well | inactive |
| Xab2 (XPA binding protein 2) | SID315473023 | -0.49 | enough cells in well | inactive |
| Lrit1 | SID315479415 | -0.14 | enough cells in well | inactive |
| Srrm2 (serine/arginine repetitive matrix 2) | SID315475222 | 0.27 | enough cells in well | inactive |
| Abl2 (ABL proto-oncogene 2, non-receptor tyrosine kinase) | SID315465236 | 0.66 | enough cells in well | inactive |
| Rbsn (rabenosyn, RAB effector) | SID315475559 | -0.79 | enough cells in well | inactive |
| Bend7 (BEN domain containing 7) | SID315477609 | -0.61 | enough cells in well | inactive |
| Sh3bp2 (SH3-domain binding protein 2) | SID315470300 | -0.32 | enough cells in well | inactive |
| Hmgn5 (high-mobility group nucleosome binding domain 5) | SID315470873 | 1.45 | enough cells in well | inactive |
| Rdh11 (retinol dehydrogenase 11) | SID315467886 | -1.31 | enough cells in well | active |
| Perm1 (PPARGC1 and ESRR induced regulator, muscle 1) | SID315474892 | – | fewer than 50 cells per well; well left out of calls | inactive |
| Aard (alanine and arginine rich domain containing protein) | SID315479441 | -0.57 | enough cells in well | inactive |
| Mettl4 (methyltransferase 4, N6-adenosine) | SID315475375 | -0.57 | enough cells in well | inactive |
| Kng2 (kininogen 2) | SID315481843 | -0.51 | enough cells in well | inactive |
| Tcp11l1 (t-complex 11 like 1) | SID315481338 | -1.45 | enough cells in well | active |
| Ankrd13d (ankyrin repeat domain 13 family, member D) | SID315473528 | 0.53 | enough cells in well | inactive |
| Rhof (ras homolog family member F (in filopodia)) | SID315470227 | -0.11 | enough cells in well | inactive |
| Pea15a (proliferation and apoptosis adaptor protein 15A) | SID315468459 | 0.49 | enough cells in well | inactive |
| Pck2 (phosphoenolpyruvate carboxykinase 2 (mitochondrial)) | SID315475003 | 0.89 | enough cells in well | inactive |
| Pck2 (phosphoenolpyruvate carboxykinase 2 (mitochondrial)) | SID315475003 | – | fewer than 50 cells per well; well left out of calls | inactive |
| Gspt1 (G1 to S phase transition 1) | SID315467051 | -1.73 | enough cells in well | active |
| Cripto (cripto, EGF-CFC family member) | SID315469644 | -0.76 | enough cells in well | inactive |
| D2hgdh (D-2-hydroxyglutarate dehydrogenase) | SID315476126 | 1.17 | enough cells in well | inactive |
| Trav3-3 (T cell receptor alpha variable 3-3) | SID315481417 | -0.01 | enough cells in well | inactive |
| Clmp (CXADR-like membrane protein) | SID315474254 | 0.82 | enough cells in well | inactive |
| Trdmt1 (tRNA aspartic acid methyltransferase 1) | SID315466360 | 0.52 | enough cells in well | inactive |
| Or13e8 (olfactory receptor family 13 subfamily E member 8) | SID315471340 | 3.19 | enough cells in well | active |
| Plaat3 (phospholipase A and acyltransferase 3) | SID315478438 | -0.55 | enough cells in well | inactive |
| Acsf3 (acyl-CoA synthetase family member 3) | SID315479926 | 2.59 | enough cells in well | inactive |
| 4933402J07Rik (RIKEN cDNA 4933402J07 gene) | SID315481619 | -0.14 | enough cells in well | inactive |

Targets listed so far whose target name begins with M or m:
| Target gene | PubChem SID | Tnf reporter robust z-score | fewer than 50 cells in well | outcome |
| --- | --- | --- | --- | --- |
| Mucl2 (mucin-like 2) | SID315469453 | 2.79 | enough cells in well | inactive |
| Mettl4 (methyltransferase 4, N6-adenosine) | SID315475375 | -0.57 | enough cells in well | inactive |
